The campaign covered roughly 53,000 sequences. About 3,700 (7%) were called active.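 Rule for the calls: active = gene knockdowns whose robust z-score for IL-1 alpha signal is at least 2 or at most -2, so actives lie on both sides; inactive = the rest.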 This is one part of the list.

The assay can be described thus: Components of the Cytosolic LPS Sensing Pathway: Gene Identification via Genome-wide siRNA Screen.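 Note: robust z of the log signal after scaling to non-targeting control siRNA wells of the plate.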 The note with it: RAW264.7 macrophages, IL-1a HTRF, actives lie on both sides, screened at 100 nM (by protocol), cells primed 5 h with Pam3CSK4 first. In short, it runs like this:
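Cells (RAW264.7, 1×10^4 per well) were transfected with siRNA at 100 nM and cultured 48h at 37 degrees C. Pam3CSK4 was added for 5 hours; LipidA transfection followed for 24 hour. IL-1a was then measured by HTRF.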
For GGAAGUCUAUGUAGGUUCATT against Kif22, the z-score is inactive: 0.388. In the case of GGUAUUAUCUGCAUGGGCATT against Mkrn3 it was inactive: 0.273; in that of CGCAUGCACUGAAAUCUACTT against Pop7, inactive: -1.52; in that of GGUGGACACACACAUCCACTT against Ampd2, inactive: 0.426.

For the sequence GGCCGCCAUUUUGGCAAGATT against Fbxo27, the z-score is active: 3.41. For CGAGAGGUUUGUCCAUAGATT against Tac4 the value was inactive: -0.86.

For “GCCCAGAGAAUGACCUAUATT against 9130019O22Rik”, the z-score was inactive: 0.54.

Turning to CGAGCAUGCAUUCAAAGGATT against Lrrc3b, the z-score is inactive: 1.33. For GGCAGCUUCUGUUCUUUUATT against Ube3c, the z-score is inactive: 0.269. In the case of GGACCUGCCAAAAGUUGUGTT against Uqcrc1 it was inactive: -1.16.

Turning to GGAUAGUUGAAGUCCUAAATT against Il9, the z-score was inactive: -1.15.

On to GCUUCUGUAAAUCCCAUAUTT against Olfr26, for which the z-score was inactive: -0.0814. In the case of GGAACUGCUGUACAGGUACTT against Mest, the z-score was inactive: -0.807. In the case of CGGAGGGAAAUGACAUUGCTT against Acr it was inactive: 0.585; in that of GGAGAUUUCAUGAACUCUGTT against Srrm3, inactive: -0.141. On to GGCUAUGACAAUGCCUACATT against Maged2, for which the z-score was inactive: 0.00495.

For GGGUUCAAGUCAGUGAUGUTT against Dnajb8, the z-score is inactive: -0.271.

For GUGAAUGGUCAGAAGUUUGTT against Elk4, the z-score is inactive: 1.43.

In the case of GCUGUUCUGCCUCUAAGACTT against Zfp597, the z-score was inactive: 0.925.

Regarding CCAGAAUUGGCAGAUUUGCTT against Mtor, the z-score was inactive: -0.22.

As for GCUUUAGAUACGUGAUUAGTT against Desi2, the z-score was inactive: -0.125. For GGAGAUCAGCUGUCUAAUGTT against Tmem237 the value was inactive: -0.207.

On to CCUGAUCCCAUGUAAAACATT against Sspn, for which the z-score was inactive: -0.35. For CCUAGUAAUGUCCAUUGUGTT against Endod1, the z-score is inactive: 0.0364. For GCAGCACUGGAAUAUUUGGTT against Prxl2a the value was inactive: -0.952; for GGAUCGAAUCUUUACCUAUTT against Col9a1, inactive: 0.932; for GGAUCAGACAUGCAAGAGGTT against Xlr5c, inactive: -1.81.

For the sequence GGAUGAGUACAGCAUUCUGTT against Rhebl1, the z-score is inactive: -0.733. Consider GGAAGAUGAACAAACGACATT against Sec11c, for which the z-score was inactive: -0.0219. In the case of GGAAACAUCUGGACUCCACTT against Hsd17b14 it was inactive: -1.45; in that of “GGACUUCACAUUCUUGAGATT against A130010J15Rik”, inactive: -0.232. For GGUGUUUACACAGAGAAUGTT against Gpr143 the value was inactive: -0.162. In the case of GCAUCGUUGACUAAAGUGGTT against Grm3 it was inactive: -0.356; in that of GGGCAACUAUUGAUGAGGUTT against Acap3, inactive: -0.138; in that of GGCCAGUUGAAUGUGUCUGTT against Acss1, inactive: -0.0382. Take GGUCUCAAUAAACUUCAGGTT against Mfap4: the z-score was inactive: 0.926. CGCCACUAUCCUAACUUGCTT against Olfr963: the z-score was inactive: 0.215.

On to CCUACAACAGAUGUGCAGCTT against Fam222b, for which the z-score is inactive: -1.82.

On to GGAUAACAGUAAAUGGCUUTT against Zkscan8, for which the z-score was inactive: 0.152. Consider CCAGUAAAACCUCUAACAATT against Kremen1, for which the z-score is inactive: -0.521. In the case of GGAGCAGGUUGGCUAUUUGTT against Ppp6c it was inactive: 0.164. For CCUUGCUCUUUCCAGCUCUTT against Olfr704 the value was inactive: 0.332; for GGUUAGACUCAGCUUCAUGTT against Tex19.2, inactive: 1.54. In the case of GGCACAUGCCCUUUUCUACTT against Cog1, the z-score was inactive: -1.24. Turning to CCGGACUCUAGAGGACUUUTT against Lalba, the z-score is inactive: 0.0285. For “CAGAUGCAAGAAGAGAGAGTT against E130006D01Rik” the value was inactive: -1.11; for GCAAUGACAUCUUUUAGACTT against Gpr12, inactive: 0.123; for CCAUAAUCUCUUUUCACUGTT against Fzd7, inactive: -0.375. For GGACUCAAGACACCAGUUGTT against Rufy3 the value was inactive: -0.318. GGAAAGGAGAGGUGUGUUCTT against Asb7: the z-score is inactive: 0.431. For the sequence CGGAUUCCGCUGGAACUAUTT against Enpp7, the z-score was inactive: -0.194. In the case of CCAAAUGGGAAGAGAUUGUTT against Xkr4 it was inactive: -0.452. For CGCUUCUAUAAACCUGACUTT against Mrpl3 the value was inactive: 0.488. In the case of GCUAUGACCGGAGGUUCUATT against Morn5 it was inactive: 0.555; in that of GGAGUACGUUGACAUCAUCTT against Timp4, inactive: 0.802.

With “GGAGCAUUCUUUGGUGAAGTT against 1700024B05Rik”, the z-score was inactive: -0.936. For GGAUAAUACAGAACAAAAGTT against Pstk the value was inactive: -0.498; for “GCGUGAACCGUUUGAUGAGTT against 9030612E09Rik”, inactive: 1.04; for GGUGAAGUACUUUUCGUUCTT against Slc1a3, inactive: 1.21.

For GGCUGUGACUCUGGAUUUGTT against Bdh1, the z-score was inactive: -0.985. For GGUCCUGGAGGCUUAUAAUTT against Sema3a the value was inactive: -0.151; for GGCUCCAAACAGAAUCUUGTT against Pmch, inactive: 0.768. In the case of GCUACUCUCUAUUGGUUUUTT against Gpr45 it was active: 2.45; in that of GCGGUGUCCUAAAAUGCACTT against Nkx1-2, inactive: 0.0348. Regarding GGCCCAGCAAAAAAAGAAGTT against Usp46, the z-score is inactive: -0.397.

With GGUUCUUAACCUCAGCAGUTT against Omg, the z-score is inactive: -0.541.

As for GGUAGCAGUUGGACCUAAUTT against Setd7, the z-score is inactive: 0.157. As to GGAAGUCUACAAGUGGCCATT against Nr1d1, the z-score is inactive: -0.467.
